In article PMC11899265 one finds binding data, which are given here for one substance.

Amino acid sequences for entries named in this document (tags omitted).
UniProt Q96D59: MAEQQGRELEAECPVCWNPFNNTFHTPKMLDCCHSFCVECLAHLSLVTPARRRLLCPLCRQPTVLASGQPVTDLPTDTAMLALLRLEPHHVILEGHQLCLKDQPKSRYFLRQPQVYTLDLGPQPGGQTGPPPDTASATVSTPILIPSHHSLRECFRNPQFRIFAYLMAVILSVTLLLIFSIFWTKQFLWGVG
UniProt P14618: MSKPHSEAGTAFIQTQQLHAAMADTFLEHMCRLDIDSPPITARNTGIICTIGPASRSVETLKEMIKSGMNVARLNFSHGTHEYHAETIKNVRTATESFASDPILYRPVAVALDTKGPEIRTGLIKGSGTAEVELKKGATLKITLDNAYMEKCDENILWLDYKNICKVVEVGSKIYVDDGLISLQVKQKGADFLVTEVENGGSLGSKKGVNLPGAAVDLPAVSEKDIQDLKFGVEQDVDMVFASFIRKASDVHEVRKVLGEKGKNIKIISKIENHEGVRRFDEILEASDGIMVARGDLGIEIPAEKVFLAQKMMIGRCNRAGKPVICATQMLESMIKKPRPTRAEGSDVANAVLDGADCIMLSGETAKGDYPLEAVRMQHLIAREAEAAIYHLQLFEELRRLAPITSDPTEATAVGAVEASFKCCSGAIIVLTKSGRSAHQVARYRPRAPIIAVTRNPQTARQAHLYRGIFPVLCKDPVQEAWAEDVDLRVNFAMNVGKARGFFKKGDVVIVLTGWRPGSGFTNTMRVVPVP

These are yes or no findings as the source states them, for the method shown. Binding seen in cells or lysates may run through a third protein. A yes stands for co-enrichment or nearness to the bait. Other partners may have been found.

In the experiment the target is Ring finger protein 183 (RNF183), Flag-tagged (UniProt Q96D59). Briefly: affinity purification with mass spectrometry; HPC cells in normal glucose transfected with PCMV3-Flag-RNF183 or PCMV3-Flag; Co-IP with anti-Flag M2 affinity gel, then LC-MS/MS on a Q Exactive mass spectrometer.

On to “M2 pyruvate kinase (PKM2) (from UniProt P14618 1-531)”, for which the binding entry is reported as “binds”.
